Laboratory results published in PMC12362813.

The chains behind the UniProt entries cited, without tags or fusion partners.
UniProt Q86WV6: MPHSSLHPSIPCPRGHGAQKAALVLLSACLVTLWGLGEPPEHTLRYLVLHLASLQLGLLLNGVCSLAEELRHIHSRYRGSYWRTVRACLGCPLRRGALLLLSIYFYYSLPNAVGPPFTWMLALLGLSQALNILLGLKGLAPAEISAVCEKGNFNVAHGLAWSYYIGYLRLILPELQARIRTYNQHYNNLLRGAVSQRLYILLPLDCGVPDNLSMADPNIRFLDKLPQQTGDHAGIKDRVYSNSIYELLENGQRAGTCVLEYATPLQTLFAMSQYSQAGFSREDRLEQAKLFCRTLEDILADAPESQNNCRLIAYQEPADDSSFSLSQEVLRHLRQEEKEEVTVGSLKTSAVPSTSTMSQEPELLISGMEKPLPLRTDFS
UniProt O95816: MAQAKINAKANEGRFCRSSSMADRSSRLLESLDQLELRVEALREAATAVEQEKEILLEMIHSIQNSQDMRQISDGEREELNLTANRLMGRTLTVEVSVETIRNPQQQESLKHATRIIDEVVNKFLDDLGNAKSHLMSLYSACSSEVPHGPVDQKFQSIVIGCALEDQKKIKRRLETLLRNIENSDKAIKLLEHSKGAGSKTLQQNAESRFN
UniProt P19474: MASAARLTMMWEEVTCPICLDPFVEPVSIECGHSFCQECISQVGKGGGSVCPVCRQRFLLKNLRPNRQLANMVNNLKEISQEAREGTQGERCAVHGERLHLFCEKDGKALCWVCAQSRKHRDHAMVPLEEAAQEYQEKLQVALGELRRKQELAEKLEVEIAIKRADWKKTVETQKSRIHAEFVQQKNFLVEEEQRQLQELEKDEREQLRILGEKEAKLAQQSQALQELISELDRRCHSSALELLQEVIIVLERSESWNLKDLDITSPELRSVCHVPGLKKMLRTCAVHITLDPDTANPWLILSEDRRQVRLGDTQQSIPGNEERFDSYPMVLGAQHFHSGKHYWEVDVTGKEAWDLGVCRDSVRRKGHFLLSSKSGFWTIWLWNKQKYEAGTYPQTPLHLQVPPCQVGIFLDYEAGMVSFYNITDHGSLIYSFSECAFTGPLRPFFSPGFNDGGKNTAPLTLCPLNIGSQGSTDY
UniProt Q9UNE7: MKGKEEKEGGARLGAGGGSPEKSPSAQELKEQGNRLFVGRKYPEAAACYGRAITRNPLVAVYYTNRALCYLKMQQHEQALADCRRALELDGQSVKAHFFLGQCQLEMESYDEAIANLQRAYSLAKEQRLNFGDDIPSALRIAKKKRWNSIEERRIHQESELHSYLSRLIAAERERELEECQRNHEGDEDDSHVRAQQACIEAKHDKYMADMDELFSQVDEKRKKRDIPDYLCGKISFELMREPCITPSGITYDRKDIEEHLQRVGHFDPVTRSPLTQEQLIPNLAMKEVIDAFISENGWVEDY

These substances were tested against Flag-STING (UniProt Q86WV6) (assay: affinity purification with mass spectrometry; Flag-STING transfected into SiHa cells for 48 h; lysate precipitated with anti-Flag antibody, IgG as negative control; SDS-PAGE, silver stain, LC-MS/MS (Q Exactive HF), MaxQuant).

binding	Substance
binds	BAG2 (endogenous) (from UniProt O95816 1-211)
binds	TRIM21 (endogenous) (from UniProt P19474 1-475) (enzyme)
binds	STUB1 (endogenous) (from UniProt Q9UNE7 1-303) (enzyme)

Results are given in words; binding and its absence hold for the method and conditions named. In cells and extracts the contact can be indirect. Here binding means that the protein was enriched with, or labelled near, the bait; the list need not be complete.
